Source: patent publication US20040048243A1, “Methods and compositions for in vitro targeting” (priority 2003, published 2004)
These are yes or no findings as the source states them, for the method shown. Some results given as binding are weak or reduced against the parent protein; the word gives no strength.

The chains behind the UniProt entries cited, without tags or fusion partners. Residues count along the entry.
UniProt P00747, residues 98-357: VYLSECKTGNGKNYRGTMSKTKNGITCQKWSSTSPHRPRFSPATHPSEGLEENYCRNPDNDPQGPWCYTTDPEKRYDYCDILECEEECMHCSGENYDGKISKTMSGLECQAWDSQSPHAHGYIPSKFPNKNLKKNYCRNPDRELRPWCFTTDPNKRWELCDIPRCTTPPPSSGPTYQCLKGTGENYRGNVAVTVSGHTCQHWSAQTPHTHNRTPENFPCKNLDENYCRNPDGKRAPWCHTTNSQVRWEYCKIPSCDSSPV

B1: phage displaying … (peptide)
peptide: CWSLELSKC
B2: phage displaying … (peptide)
peptide: CWSLEFTKC
B3: phage displaying … (peptide)
peptide: CWSLEVAKC
B4: phage displaying … (peptide)
peptide: CWSAEWTKC
B5: phage displaying … (peptide)
peptide: CWSLESLKC
B6: phage displaying … (peptide)
peptide: CWSLELLKC
B7: phage displaying … (peptide)
peptide: CGGREFWLC
B8: phage displaying … (peptide)
peptide: CGVVSRVGC
B9: phage displaying … (peptide)
peptide: CLAWVGGRC
B10: phage displaying … (peptide)
peptide: CQGKFSQRC
B11: phage displaying … (peptide)
peptide: CRVLADRDC
B12: phage displaying … (peptide)
peptide: CRWSSMIWC
B13: phage displaying … (peptide)
peptide: CSLQGIVGC
B14: phage displaying … (peptide)
peptide: CSRSVSRLC
B15: phage displaying … (peptide)
peptide: CVAADRYVC
B16: phage displaying … (peptide)
peptide: CYGAWRVSC

What follows are binders tested against rhAngiostatin (human, UniProt P00747 98-357, limits assumed) (assay: phage panning on coated rhAngiostatin; table: sequences displayed by phage binding rh Angiostatin).
B1 was tested, and the binding was “binds”. B2 was tested, and the binding was “binds”. For B3, the binding was “binds”. In the case of B4, the binding is reported as “binds”. For B5, the binding was “binds”. For B6, the binding was “binds”. For B7, the binding was “binds”. With B8 the binding was “binds”. For B9, the binding was “binds”. In the case of B10, the binding is reported as “binds”. For B11, the binding was “binds”. With B12 the binding was “binds”. In the case of B13, the binding is reported as “binds”. For B14, the binding was “binds”. For B15, the binding was “binds”. For B16, the binding was “binds”.
